Results published in US10934258B2, “Materials for use in an aqueous organic redox flow battery” (Utah State University, priority 2016, dated 2021).

Tests used:
[1] = Post-cell CV and 1H NMR analysis of flow cell electrolytes
[2] = Solubility by preparing a super-saturated solution
Description: Chemicals and Materials. All chemicals were purchased from Aldrich or TCI, stored in an Argon glovebox, and used directly. Solubility of substituted ferrocene compounds was measured in water by preparing a super-saturated solution in a volumetric cylinder. Deionized water was purged overnight using N2 before use. All experimental operations were conducted under a N2 atmosphere. Conductivity of the electrolyte solutions was measured using a Mettler Toledo conductivity meter at R.T. NMR studies were conducted using a Bruker 500 MHz NMR spectrometer. UV-Vis was collected using an Ocean Optic spectrometer. Elemental analysis was done at Atlantic Microlab.
Calculation of theoretical energy density: The theoretical energy density of the FcNCl/MV AORFB was calculated using equation 3 below, where n is the number of electrons involved into the cell reaction, C is the concentration of active materials, F is Faraday constant, 26.8 Ah/mol, V is the cell voltage, and 2 represents a factor considering both volumes of anolyte and catholyte. Solubility of FcNCl and MV was measured in water respectively by preparing a super-saturated solution. Similar solubility tests in water were applied for ferrocenecarboxylic acid, 1-1′-ferrocenedicarboxilic acid, ferrocenecarboxylic acid, and 1,1′-ferrocenedimethanol. Energy density (Wh/L)=nCFV/2 (equation 3)

[3] = (NPr)2V/[FcN^Et]Br cell after 100 cycles, post-cell CV
[4] = 0.5 M FcNCl/MV cell after 400 cycles, CV and 1H NMR

Q: Which “crossover through anion exchange membrane” value [1, 3] does the source give for `C[N+](C)(C)CCC[n+]1ccc(-c2cc[n+](CCC[N+](C)(C)C)cc2)cc1.[Br-].[Br-].[Br-].[Br-]` [(NPr)2V, 1,1′-bis[3-(trimethylamonium)propyl]-4,4′-bipyridinium, tetrabromide] here?
A: no electrolyte crossover

Q: What does the source list for `O=S(=O)([O-])CCC[n+]1ccc(-c2cc[n+](CCCS(=O)(=O)[O-])cc2)cc1` [(SPr)2V, 1,1′-bis[3-sulfonatopropyl]-4,4′-bipyridinium]?
A: charge capacity in 1.5 M KCl ([2]; 1.7 M in 1.5 M KCl): 42.9 Ah/L; charge capacity (one-electron) ([2]; 2.0 M in H2O, one electron): 53.5 Ah/L

Q: For `C[N+](C)(C)C[c-]1cccc1.[Cl-].[Fe+2].c1cc[cH-]c1` [FcNCl, (ferrocenylmethyl)trimethylammonium chloride], which “crossover through anion exchange membrane” value [1, 4] is on record?
A: no crossover

Q: With `C[n+]1ccc(-c2cc[n+](C)cc2)cc1` [MV, methyl viologen, reference compound] as the compound, how does the “crossover through anion exchange membrane” value [1, 4] read?
A: no crossover

Q: Which “crossover through anion exchange membrane” value [1, 3] does the source give for `CC[N+](C)(C)C[c-]1cccc1.[Br-].[Fe+2].c1cc[cH-]c1` [[FcN^Et]Br, (ferrocenylmethyl)ethyldimethylammonium bromide] here?
A: no electrolyte crossover
